The record followed here is paper PMC11162468.

Protein sequences, listed by entry. Tags and fused reporters are not part of them. Lines headed by an entry give the natural chain unless they say otherwise; changes in a name come on top. Residues count along the entry.
UniProt P06748: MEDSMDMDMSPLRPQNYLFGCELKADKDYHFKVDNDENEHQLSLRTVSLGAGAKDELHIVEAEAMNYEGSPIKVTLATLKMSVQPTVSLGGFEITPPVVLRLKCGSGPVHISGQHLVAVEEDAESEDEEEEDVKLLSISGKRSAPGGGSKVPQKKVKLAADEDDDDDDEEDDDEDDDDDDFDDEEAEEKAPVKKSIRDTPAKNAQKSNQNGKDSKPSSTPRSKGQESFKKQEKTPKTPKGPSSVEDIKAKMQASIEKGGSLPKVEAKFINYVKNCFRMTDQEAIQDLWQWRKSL
UniProt P06213, residues 28-1382: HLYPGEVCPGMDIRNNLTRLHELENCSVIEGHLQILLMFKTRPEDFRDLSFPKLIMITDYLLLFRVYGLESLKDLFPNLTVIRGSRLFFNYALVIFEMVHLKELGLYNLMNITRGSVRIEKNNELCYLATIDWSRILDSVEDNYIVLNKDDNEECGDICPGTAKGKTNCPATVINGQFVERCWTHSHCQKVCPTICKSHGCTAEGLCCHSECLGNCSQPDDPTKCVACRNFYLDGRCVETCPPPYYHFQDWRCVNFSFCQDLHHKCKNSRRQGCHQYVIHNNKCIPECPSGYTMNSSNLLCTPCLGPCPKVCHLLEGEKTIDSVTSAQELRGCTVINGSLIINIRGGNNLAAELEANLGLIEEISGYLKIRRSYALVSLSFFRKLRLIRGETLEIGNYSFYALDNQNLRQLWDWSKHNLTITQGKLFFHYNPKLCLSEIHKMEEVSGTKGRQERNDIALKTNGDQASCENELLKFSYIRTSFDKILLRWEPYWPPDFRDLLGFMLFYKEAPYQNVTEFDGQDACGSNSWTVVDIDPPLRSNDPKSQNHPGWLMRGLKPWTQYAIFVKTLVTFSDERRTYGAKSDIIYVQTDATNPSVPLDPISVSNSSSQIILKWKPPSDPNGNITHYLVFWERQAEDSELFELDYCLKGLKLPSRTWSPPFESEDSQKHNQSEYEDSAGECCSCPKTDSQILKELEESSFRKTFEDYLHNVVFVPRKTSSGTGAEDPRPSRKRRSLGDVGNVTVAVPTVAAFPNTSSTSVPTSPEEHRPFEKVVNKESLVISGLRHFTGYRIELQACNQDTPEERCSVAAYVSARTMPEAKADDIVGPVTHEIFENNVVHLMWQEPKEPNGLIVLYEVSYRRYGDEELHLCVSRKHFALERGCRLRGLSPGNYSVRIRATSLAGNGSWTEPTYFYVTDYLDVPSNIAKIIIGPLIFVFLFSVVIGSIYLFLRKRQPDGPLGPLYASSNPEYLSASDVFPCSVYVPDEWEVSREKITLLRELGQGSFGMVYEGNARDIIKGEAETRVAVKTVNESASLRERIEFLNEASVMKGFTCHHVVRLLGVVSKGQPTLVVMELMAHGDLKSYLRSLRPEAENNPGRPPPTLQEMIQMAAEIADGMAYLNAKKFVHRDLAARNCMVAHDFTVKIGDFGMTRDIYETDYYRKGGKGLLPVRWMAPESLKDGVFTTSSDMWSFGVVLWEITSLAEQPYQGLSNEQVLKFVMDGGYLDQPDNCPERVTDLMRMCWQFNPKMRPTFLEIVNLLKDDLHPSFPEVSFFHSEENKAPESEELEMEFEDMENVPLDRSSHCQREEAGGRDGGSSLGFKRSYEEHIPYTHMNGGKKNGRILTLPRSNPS

In assay [1] the target is FLAG-tagged full-length (FL) NPM1 (UniProt P06748). Description: co-IP; H226Br cells expressing FLAG-tagged NPM1 (FL, truncation or deletion mutants), stimulated with IGF2 for 3 h; IP with an anti-FLAG antibody.
Assay [2] concerns the target insulin receptor (IR) (human (endogenous in A549 and H226Br)) (UniProt P06213). Nature of the assay: co-IP; A549 cells with IGF2; immunoprecipitants from 500 ug of nuclear extract using IR- or NPM1-targeting antibodies; endogenous proteins.

These are yes or no findings as the source states them, for the method shown. In cells and extracts the contact can be indirect. Some entries that bind do so weakly or less than the wild type.

As for “insulin receptor (IR) (from UniProt P06213-1 28-1382)”, the binding entry in assay [1] is on record as “binds”.
Consider “nucleophosmin (NPM1) (from UniProt P06748-1 1-294)”, for which, in assay [2], the binding result is listed as “binds”.
